Results published in the supplement of paper PMC10849652.
This is one part of the list.

By UniProt entry, the sequences of proteins in these tests, tags left out. Where a name states a change or a piece, a line headed by the entry shows the natural chain unless it says otherwise.
UniProt P48643, whole entry, looked up: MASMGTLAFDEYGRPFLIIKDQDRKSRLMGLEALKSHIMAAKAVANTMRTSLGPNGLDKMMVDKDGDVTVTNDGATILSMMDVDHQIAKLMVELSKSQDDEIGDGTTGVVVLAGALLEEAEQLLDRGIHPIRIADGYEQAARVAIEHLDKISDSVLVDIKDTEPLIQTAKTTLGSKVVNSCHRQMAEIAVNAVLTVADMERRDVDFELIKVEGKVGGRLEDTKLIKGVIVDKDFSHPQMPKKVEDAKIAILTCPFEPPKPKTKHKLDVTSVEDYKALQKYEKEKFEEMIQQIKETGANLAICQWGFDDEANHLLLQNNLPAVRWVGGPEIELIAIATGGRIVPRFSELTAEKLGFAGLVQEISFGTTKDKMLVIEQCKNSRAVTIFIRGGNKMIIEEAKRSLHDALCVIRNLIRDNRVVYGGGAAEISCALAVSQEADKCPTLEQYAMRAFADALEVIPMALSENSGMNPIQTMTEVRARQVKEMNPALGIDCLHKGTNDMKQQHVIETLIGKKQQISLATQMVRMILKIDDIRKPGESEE
UniProt Q99832: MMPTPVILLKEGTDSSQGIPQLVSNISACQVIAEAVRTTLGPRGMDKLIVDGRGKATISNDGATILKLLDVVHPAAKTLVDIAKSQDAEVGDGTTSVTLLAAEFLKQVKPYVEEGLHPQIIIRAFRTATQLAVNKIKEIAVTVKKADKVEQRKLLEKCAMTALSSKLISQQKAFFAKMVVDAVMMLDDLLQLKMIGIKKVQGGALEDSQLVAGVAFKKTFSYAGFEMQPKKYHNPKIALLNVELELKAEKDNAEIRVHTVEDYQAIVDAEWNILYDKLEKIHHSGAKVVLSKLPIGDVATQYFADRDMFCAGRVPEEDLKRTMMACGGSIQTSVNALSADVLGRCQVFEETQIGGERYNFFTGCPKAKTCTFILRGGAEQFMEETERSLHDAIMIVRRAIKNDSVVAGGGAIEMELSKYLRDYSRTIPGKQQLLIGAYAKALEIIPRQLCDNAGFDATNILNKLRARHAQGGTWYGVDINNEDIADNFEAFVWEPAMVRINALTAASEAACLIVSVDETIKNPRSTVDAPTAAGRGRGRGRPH
UniProt O15446, whole entry, looked up: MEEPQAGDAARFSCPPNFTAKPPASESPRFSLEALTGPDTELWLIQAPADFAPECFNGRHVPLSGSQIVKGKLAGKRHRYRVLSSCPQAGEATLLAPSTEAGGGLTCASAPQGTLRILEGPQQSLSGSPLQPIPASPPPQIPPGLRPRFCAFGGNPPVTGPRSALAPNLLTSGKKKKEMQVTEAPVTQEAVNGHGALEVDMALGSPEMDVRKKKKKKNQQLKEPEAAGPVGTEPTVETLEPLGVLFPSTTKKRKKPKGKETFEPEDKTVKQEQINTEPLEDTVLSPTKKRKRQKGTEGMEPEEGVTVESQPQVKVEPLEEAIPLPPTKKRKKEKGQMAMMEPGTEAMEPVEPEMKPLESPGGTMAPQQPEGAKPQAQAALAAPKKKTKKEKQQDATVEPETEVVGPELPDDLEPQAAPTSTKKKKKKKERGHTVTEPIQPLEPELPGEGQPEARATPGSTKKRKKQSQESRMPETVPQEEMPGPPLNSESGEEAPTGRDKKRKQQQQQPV
UniProt O75081: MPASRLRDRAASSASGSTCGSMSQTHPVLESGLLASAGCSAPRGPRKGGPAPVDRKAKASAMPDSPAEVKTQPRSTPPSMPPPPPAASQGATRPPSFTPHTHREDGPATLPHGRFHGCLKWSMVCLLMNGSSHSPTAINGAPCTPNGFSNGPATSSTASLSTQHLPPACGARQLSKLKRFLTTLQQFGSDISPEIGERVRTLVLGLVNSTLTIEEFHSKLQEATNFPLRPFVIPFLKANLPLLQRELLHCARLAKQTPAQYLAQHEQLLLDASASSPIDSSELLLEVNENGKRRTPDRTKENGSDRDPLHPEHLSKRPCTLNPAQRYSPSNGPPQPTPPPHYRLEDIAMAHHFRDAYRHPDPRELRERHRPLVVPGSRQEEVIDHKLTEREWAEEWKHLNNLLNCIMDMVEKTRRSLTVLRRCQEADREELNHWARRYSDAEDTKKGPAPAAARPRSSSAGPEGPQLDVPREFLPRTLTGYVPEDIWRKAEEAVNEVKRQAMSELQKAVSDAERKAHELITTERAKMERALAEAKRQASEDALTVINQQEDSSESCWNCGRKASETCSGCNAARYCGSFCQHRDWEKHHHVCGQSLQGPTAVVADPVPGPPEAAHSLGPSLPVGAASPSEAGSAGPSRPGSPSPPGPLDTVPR
UniProt Q96MW1: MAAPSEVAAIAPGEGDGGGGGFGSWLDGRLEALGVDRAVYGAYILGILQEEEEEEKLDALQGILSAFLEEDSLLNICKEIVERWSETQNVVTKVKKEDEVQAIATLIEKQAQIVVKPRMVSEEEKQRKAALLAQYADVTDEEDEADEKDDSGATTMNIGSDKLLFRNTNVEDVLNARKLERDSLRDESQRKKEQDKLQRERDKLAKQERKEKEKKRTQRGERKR
UniProt Q7Z6B0: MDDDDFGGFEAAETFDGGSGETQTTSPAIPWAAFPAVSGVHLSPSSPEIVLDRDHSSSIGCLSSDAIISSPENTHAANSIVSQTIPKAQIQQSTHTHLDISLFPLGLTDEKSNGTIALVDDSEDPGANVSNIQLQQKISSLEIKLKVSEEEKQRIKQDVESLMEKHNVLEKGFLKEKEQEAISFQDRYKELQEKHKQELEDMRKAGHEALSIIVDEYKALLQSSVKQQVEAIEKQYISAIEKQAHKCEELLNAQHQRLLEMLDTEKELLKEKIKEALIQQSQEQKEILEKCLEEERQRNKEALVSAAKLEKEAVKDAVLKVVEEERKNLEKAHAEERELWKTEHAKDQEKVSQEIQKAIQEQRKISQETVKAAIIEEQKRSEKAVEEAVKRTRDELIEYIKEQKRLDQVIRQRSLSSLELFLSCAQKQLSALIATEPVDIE
UniProt P20248, whole entry, looked up: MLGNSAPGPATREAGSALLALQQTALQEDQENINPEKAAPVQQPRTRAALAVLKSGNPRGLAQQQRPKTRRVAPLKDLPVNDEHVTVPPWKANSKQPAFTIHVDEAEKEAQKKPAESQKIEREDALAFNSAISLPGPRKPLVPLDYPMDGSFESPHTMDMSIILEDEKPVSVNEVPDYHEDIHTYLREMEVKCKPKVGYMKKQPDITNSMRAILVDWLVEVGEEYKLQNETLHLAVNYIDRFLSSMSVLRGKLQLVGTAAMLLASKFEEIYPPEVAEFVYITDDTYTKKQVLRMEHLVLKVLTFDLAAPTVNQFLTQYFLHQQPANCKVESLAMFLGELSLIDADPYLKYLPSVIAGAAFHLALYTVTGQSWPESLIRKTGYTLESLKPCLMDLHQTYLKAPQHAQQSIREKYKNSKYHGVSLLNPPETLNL
UniProt Q96ER9: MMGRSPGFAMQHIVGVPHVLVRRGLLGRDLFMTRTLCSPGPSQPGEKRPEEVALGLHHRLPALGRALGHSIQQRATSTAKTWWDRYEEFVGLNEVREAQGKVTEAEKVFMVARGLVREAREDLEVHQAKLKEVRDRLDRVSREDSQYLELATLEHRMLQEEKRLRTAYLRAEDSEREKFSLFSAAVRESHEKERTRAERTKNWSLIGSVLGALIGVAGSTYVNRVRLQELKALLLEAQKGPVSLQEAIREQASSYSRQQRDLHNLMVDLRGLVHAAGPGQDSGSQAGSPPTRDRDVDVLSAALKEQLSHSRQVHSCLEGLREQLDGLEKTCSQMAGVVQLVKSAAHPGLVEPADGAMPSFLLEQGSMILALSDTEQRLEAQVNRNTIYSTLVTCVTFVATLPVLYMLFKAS
UniProt Q96NT0: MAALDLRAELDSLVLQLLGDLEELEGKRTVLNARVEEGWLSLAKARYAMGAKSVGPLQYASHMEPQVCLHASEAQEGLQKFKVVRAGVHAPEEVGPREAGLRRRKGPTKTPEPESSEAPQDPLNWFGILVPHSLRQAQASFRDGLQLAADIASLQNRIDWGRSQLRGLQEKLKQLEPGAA
UniProt Q6P4E1: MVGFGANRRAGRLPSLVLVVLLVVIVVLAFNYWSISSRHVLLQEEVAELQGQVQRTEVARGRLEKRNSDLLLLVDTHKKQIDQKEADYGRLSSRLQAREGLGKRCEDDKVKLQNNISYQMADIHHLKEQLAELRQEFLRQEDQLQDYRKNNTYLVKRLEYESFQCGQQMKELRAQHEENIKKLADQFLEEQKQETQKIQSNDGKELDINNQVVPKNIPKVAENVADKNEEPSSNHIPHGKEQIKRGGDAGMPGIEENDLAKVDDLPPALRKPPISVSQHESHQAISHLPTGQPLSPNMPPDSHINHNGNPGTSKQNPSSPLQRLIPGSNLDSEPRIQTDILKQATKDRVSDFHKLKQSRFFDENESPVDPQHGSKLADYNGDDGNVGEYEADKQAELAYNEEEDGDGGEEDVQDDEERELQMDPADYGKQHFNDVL
UniProt Q9H6E4: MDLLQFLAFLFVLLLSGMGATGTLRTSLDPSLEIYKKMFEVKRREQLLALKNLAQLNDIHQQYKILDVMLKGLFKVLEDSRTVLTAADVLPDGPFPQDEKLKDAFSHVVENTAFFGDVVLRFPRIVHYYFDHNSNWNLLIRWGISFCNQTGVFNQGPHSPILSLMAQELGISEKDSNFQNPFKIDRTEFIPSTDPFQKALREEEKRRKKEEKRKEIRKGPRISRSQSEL
UniProt Q9H6F5: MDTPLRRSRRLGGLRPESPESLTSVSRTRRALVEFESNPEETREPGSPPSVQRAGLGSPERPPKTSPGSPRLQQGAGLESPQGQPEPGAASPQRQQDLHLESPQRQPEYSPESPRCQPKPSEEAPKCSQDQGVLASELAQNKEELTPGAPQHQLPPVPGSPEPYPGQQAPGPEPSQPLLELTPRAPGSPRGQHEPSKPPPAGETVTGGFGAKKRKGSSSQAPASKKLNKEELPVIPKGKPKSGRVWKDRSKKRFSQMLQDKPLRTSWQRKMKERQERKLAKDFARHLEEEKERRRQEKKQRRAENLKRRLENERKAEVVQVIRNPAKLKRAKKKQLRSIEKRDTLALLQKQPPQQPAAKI
UniProt O95067, whole entry, looked up: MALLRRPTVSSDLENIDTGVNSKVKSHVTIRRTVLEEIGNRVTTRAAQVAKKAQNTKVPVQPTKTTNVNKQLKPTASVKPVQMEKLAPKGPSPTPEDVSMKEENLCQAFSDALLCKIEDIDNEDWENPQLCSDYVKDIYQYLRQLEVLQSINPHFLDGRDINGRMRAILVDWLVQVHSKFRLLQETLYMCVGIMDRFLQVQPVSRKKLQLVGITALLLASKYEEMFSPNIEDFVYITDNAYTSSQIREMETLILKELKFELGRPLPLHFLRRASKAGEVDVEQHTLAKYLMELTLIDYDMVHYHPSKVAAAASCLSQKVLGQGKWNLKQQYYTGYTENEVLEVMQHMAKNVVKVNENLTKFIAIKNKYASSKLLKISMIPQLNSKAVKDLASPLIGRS
UniProt P60953, whole entry, looked up: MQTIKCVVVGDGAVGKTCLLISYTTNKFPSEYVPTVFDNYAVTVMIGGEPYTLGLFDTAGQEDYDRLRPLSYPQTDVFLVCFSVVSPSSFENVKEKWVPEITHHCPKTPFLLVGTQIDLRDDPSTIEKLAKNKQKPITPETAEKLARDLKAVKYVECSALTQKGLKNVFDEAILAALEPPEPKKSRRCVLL
UniProt P78371: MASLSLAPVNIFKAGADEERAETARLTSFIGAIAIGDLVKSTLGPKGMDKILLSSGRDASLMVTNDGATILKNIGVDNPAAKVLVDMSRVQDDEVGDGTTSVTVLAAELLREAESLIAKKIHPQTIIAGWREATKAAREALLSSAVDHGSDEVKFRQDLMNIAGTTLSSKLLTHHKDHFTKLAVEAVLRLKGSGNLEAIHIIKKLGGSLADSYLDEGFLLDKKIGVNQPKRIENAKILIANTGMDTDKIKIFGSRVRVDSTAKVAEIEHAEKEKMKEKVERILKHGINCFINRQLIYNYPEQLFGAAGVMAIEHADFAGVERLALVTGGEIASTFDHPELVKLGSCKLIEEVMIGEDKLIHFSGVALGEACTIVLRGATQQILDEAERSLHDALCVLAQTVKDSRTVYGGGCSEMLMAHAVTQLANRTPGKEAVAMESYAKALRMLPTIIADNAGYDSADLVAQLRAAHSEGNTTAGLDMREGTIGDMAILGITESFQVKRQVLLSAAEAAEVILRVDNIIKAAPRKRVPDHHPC
UniProt Q8IWD4: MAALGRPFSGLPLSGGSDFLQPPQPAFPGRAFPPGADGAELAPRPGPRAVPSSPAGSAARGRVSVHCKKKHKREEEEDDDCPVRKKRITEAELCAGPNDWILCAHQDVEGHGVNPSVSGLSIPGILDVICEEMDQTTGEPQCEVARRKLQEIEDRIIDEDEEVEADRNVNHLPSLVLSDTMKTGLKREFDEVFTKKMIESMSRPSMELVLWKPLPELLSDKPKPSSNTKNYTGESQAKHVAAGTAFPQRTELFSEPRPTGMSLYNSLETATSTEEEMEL

Legend:
Assay in all cases: log2 fold change, soluble protein after heating vs DMSO (PISA); higher = thermal stabilisation; K562 cells, 10 uM, 30 min; active = over 0.2 and 3.5 SD of the protein, either way, in both replicates (recomputed)
[1] = compound: COC1=CC=C(C=C1)CN2C=CC3=C2C=C(C=C3)C(=O)NO
Method in brief: (§1)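 K562 cells at 2×10^6 cells/mL were given 10 μM compound for 30 min. Aliquots then went through 3 min of heating across 48°C-58°C, were pooled, and were extracted in PBS with 0.5% NP-40 at 4°C, and the supernatant after 21,000xg for 90 min was quantified by TMTpro 16plex LC-MS/MS with channel sums equalised. Thermal stability relative to control samples, from duplicates, is given as log2 fold change.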

[2] = compound: CON(C)C(=O)N1N=C(c2cc(F)ccc2F)S[C@@]1(CCCN)c1ccccc1 [filanesib]
Method in brief: as §1

[3] = compound: CO[C@H]1C[C@@H]2CC[C@@H](C)[C@@](O)(O2)C(=O)C(=O)N2CCCC[C@H]2C(=O)O[C@H]([C@H](C)C[C@@H]2CC[C@H](n3cnnn3)[C@H](OC)C2)CC(=O)[C@H](C)/C=C(\C)[C@@H](O)[C@@H](OC)C(=O)[C@H](C)C[C@H](C)/C=C/C=C/C=C/1C [zotarolimus]
Method in brief: as §1

[4] = compound: COc1cc(C(=O)O)ccc1NC(=O)[C@@H]1N[C@@H](CC(C)(C)C)[C@](C#N)(c2ccc(Cl)cc2F)[C@H]1c1cccc(Cl)c1F [idasanutlin]
Method in brief: as §1

[5] = compound: COc1cc(Nc2ncc3c(n2)-c2ccc(Cl)cc2C(c2c(F)cccc2OC)=NC3)ccc1C(=O)O [alisertib]
Method in brief: as §1

[6] = compound: COc1cc2nc(-c3cc(F)ccc3O)nc(N[C@@H]3CNC[C@H]3C(C)(C)O)c2cc1OC
Method in brief: as §1

[7] = compound: COc1cc2ncnc(Nc3ccc(F)c(Cl)c3)c2cc1OCCCN1CCOCC1 [gefitinib]
Method in brief: as §1

[8] = compound: COc1cccc2cc(-c3nc([C@H]4CC[C@H](C(=O)O)CC4)n4ncnc(N)c34)[nH]c12
Method in brief: as §1

[9] = compound: CS(=O)(=O)CCNCc1ccc(-c2ccc3ncnc(Nc4ccc(OCc5cccc(F)c5)c(Cl)c4)c3c2)o1 [lapatinib]
Method in brief: as §1

[10] = compound: CS(=O)(=O)N1CCN(Cc2cc3nc(-c4cccc5[nH]ncc45)nc(N4CCOCC4)c3s2)CC1 [pictilisib]
Method in brief: as §1

[11] = compound: CS(=O)(=O)c1ccc(-c2cnc(N)c(C(=O)Nc3ccccc3)n2)cc1
Method in brief: as §1

[12] = compound: C[C@@H](Oc1cc(-c2cnn(C3CCNCC3)c2)cnc1N)c1c(Cl)ccc(F)c1Cl [crizotinib]
Method in brief: as §1

[13] = compound: C[C@@H]1COCCN1C2=NC(=NC(=C2)C3(CC3)S(=O)(=O)C)C4=C5C=CNC5=CC=C4
Method in brief: as §1

[14] = compound: C[C@H](C1=CC=C(C=C1)C(=O)NC2=C3C=CNC3=NC=C2)N
Method in brief: as §1

[15] = compound: C[C@H](Nc1ncnc2nc[nH]c12)c1cc2cccc(Cl)c2c(=O)n1-c1ccccc1 [duvelisib]
Method in brief: as §1

[16] = compound: Cc1cc(Nc2cc(CN3CCOCC3)c3nc(C)c(Cc4ccc(Cl)cc4F)n3n2)n[nH]1 [gandotinib]
Method in brief: as §1

[17] = compound: Cc1cc(Nc2cc(N3CCN(C)CC3)nc(Sc3ccc(NC(=O)C4CC4)cc3)n2)n[nH]1 [tozasertib]
Method in brief: as §1

[18] = compound: Cc1cc(SCc2sc(-c3ccc(C(F)(F)F)cc3)nc2C)ccc1OCC(=O)O
Method in brief: as §1

[19] = compound: Cc1ccc(-n2nc(C(C)(C)C)cc2NC(=O)Nc2ccc(OCCN3CCOCC3)c3ccccc23)cc1 [doramapimod]
Method in brief: as §1

[20] = compound: Cc1ccc(C(=O)N(CCCN)[C@@H](c2nc3cc(Cl)ccc3c(=O)n2Cc2ccccc2)C(C)C)cc1 [ispinesib]
Method in brief: as §1

Measured: log2 fold change

CCT5 (UniProt P48643)
inactive: [1] 0.073 | [2] -0.04 | [3] 0.025 | [4] -0.031 | [5] -0.058 | [6] -0.026 | [7] -0.005 | [8] 0.003 | [9] 0.013 | [10] -0.079 | [11] -0.026 | [12] -0.007 | [13] 0.006 | [14] -0.023 | [15] -0.006 | [16] -0.068 | [17] 0.001 | [18] 0.004 | [19] 0.002 | [20] 0.01

CCT7 (UniProt Q99832)
inactive: [1] -0.02 | [2] -0.023 | [3] 0.02 | [4] -0.019 | [5] -0.042 | [6] -0.014 | [7] -0.011 | [8] -0.013 | [9] 0.001 | [10] -0.068 | [11] -0.015 | [12] -0.004 | [13] 0.018 | [14] -0.025 | [15] -0.04 | [16] -0.018 | [17] 0.005 | [18] -0.011 | [19] -0.006 | [20] 0.008

CD3EAP isoform 2 (UniProt O15446)
inactive: [1] -0.001 | [2] 0.19 | [3] -0.023 | [4] 0.095 | [5] -0.046 | [6] -0.078 | [7] -0.02 | [8] 0.008 | [9] 0.01 | [10] 0.037 | [11] -0.029 | [12] -0.042 | [13] -0.241 | [14] 0.083 | [15] -0.052 | [16] 0.048 | [17] -0.005 | [18] -0.03 | [19] 0.124 | [20] -0.066

CBFA2T3 (UniProt O75081)
inactive: [1] -0.058 | [2] 0.08 | [3] -0.003 | [4] 0.058 | [5] 0.043 | [6] 0.059 | [7] 0.112 | [8] 0.072 | [9] -0.105 | [10] -0.136 | [11] -0.117 | [12] 0.241 | [13] 0.147 | [14] 0.054 | [15] 0.035 | [16] -0.058 | [17] 0.037 | [18] 0.084 | [19] 0.22 | [20] -0.001

CCDC43 (UniProt Q96MW1)
inactive: [1] 0.003 | [2] -0.028 | [3] 0.06 | [4] -0.007 | [5] -0.106 | [6] -0.025 | [7] 0.027 | [8] -0.001 | [9] 0.05 | [10] -0.036 | [11] 0.035 | [12] 0.046 | [13] 0.037 | [14] -0.188 | [15] 0.016 | [16] -0.018 | [17] 0.017 | [18] -0.044 | [19] 0.011 | [20] -0.042

CCDC91 (UniProt Q7Z6B0)
inactive: [1] 0.114 | [2] -0.037 | [3] -0.066 | [4] 0.04 | [5] -0.051 | [6] -0.006 | [7] 0.016 | [8] -0.012 | [9] -0.009 | [10] 0.036 | [11] 0.056 | [12] -0.022 | [13] 0.037 | [14] 0.065 | [15] 0.01 | [16] -0.04 | [17] 0.01 | [18] -0.003 | [19] 0.05 | [20] -0.018

Random excerpt: 2 records from the list.
CBFA2T3 (UniProt O75081)
inactive: [1] -0.058 | [2] 0.08 | [3] -0.003 | [4] 0.058 | [5] 0.043 | [6] 0.059 | [7] 0.112 | [8] 0.072 | [9] -0.105 | [10] -0.136 | [11] -0.117 | [12] 0.241 | [13] 0.147 | [14] 0.054 | [15] 0.035 | [16] -0.058 | [17] 0.037 | [18] 0.084 | [19] 0.22 | [20] -0.001

CCDC43 (UniProt Q96MW1)
inactive: [1] 0.003 | [2] -0.028 | [3] 0.06 | [4] -0.007 | [5] -0.106 | [6] -0.025 | [7] 0.027 | [8] -0.001 | [9] 0.05 | [10] -0.036 | [11] 0.035 | [12] 0.046 | [13] 0.037 | [14] -0.188 | [15] 0.016 | [16] -0.018 | [17] 0.017 | [18] -0.044 | [19] 0.011 | [20] -0.042

The results go on:

CCNA2 (UniProt P20248)
inactive: [1] -0.013 | [2] 0.009 | [3] -0.008 | [4] 0.016 | [5] -0.032 | [6] -0.037 | [7] -0.002 | [8] 0.026 | [9] 0.04 | [10] -0.024 | [11] -0.011 | [12] -0.033 | [13] -0.058 | [14] -0.065 | [15] 0 | [16] 0.002 | [17] -0.027 | [18] 0.01 | [19] 0.017 | [20] 0.043

CCDC51 (UniProt Q96ER9)
inactive: [1] 0.001 | [2] -0.128 | [3] 0.033 | [4] -0.061 | [5] -0.081 | [6] -0.105 | [7] -0.013 | [8] 0.042 | [9] 0.085 | [10] 0.011 | [11] -0.081 | [12] -0.036 | [13] -0.018 | [14] -0.084 | [15] 0.086 | [16] 0 | [17] 0.003 | [18] 0.006 | [19] -0.02 | [20] 0.009

CCDC115 (UniProt Q96NT0)
inactive: [1] 0.05 | [2] 0.005 | [3] -0.009 | [4] -0.007 | [5] -0.094 | [6] -0.021 | [7] 0.043 | [8] -0.001 | [9] 0.003 | [10] 0.09 | [11] -0.001 | [12] 0.083 | [13] 0.008 | [14] -0.118 | [15] 0.061 | [16] -0.023 | [17] 0.032 | [18] -0.046 | [19] -0.012 | [20] 0.053

CASC4 (UniProt Q6P4E1)
inactive: [1] -0.045 | [2] -0.012 | [3] 0.047 | [4] -0.103 | [5] 0.029 | [6] 0.097 | [7] 0.066 | [8] 0.1 | [9] -0.036 | [10] 0.066 | [11] 0.026 | [12] 0.062 | [13] 0.024 | [14] 0.031 | [15] 0.049 | [16] -0.03 | [17] 0.017 | [18] -0.04 | [19] 0.016 | [20] 0.001

CCDC134 (UniProt Q9H6E4)
inactive: [1] -0.041 | [2] 0.019 | [3] 0.006 | [4] 0.014 | [5] -0.096 | [6] -0.056 | [7] 0.003 | [8] -0.02 | [9] 0.035 | [10] -0.065 | [11] 0.035 | [12] -0.003 | [13] -0.117 | [14] 0.091 | [15] -0.084 | [16] 0.008 | [17] 0.036 | [18] -0.014 | [19] 0.044 | [20] -0.022

CCDC86 (UniProt Q9H6F5)
inactive: [1] -0.127 | [2] 0.335 | [3] 0.004 | [4] 0.085 | [5] -0.1 | [6] 0.024 | [7] 0.007 | [8] -0.15 | [9] 0.137 | [10] -0.023 | [11] -0.061 | [12] 0.058 | [13] -0.451 | [14] 0.368 | [15] -0.131 | [16] 0.345 | [17] 0.045 | [18] -0.013 | [19] 0.183 | [20] -0.168

CCNB2 (UniProt O95067)
inactive: [1] 0.038 | [2] -0.007 | [3] 0.033 | [4] -0.019 | [5] 0.001 | [6] -0.074 | [7] 0.004 | [8] -0.019 | [9] 0.008 | [10] 0.115 | [11] 0.01 | [12] -0.176 | [13] 0.005 | [14] -0.031 | [15] 0.049 | [16] 0.039 | [17] -0.079 | [18] 0.078 | [19] -0.018 | [20] -0.014

CDC42 (UniProt P60953)
inactive: [1] 0.282 | [2] -0.001 | [3] 0.018 | [4] 0.033 | [5] -0.083 | [6] -0.033 | [7] -0.001 | [8] -0.112 | [9] -0.018 | [10] 0.083 | [11] 0.025 | [12] 0.154 | [13] -0.072 | [14] -0.206 | [15] -0.062 | [16] 0.197 | [17] 0.016 | [18] 0.038 | [19] -0.129 | [20] 0.2

CCT2 (UniProt P78371)
inactive: [1] 0.044 | [2] -0.038 | [3] 0.01 | [4] -0.006 | [5] -0.033 | [6] -0.014 | [7] -0.022 | [8] 0.024 | [9] 0.005 | [10] -0.041 | [11] -0.025 | [12] -0.008 | [13] 0.011 | [14] -0.038 | [15] 0.009 | [16] -0.029 | [17] 0.007 | [18] 0.016 | [19] -0.006 | [20] 0.005

CCDC117 (UniProt Q8IWD4)
inactive: [1] -0.062 | [2] 0.061 | [3] -0.059 | [4] 0.035 | [5] -0.037 | [6] -0.012 | [7] 0.063 | [8] -0.07 | [9] -0.068 | [10] -0.019 | [11] 0.104 | [12] -0.071 | [13] 0.01 | [14] -0.03 | [15] -0.05 | [16] 0.032 | [17] 0.025 | [18] -0.001 | [19] -0.027 | [20] -0.03
